Laboratory results published in patent US20240109962A1.
Substitutions are numbered along the chain they refer to. These are yes or no findings as the source states them, for the method shown. Some results given as binding are weak or reduced against the parent protein; the word gives no strength.

B1: Antibody 10D7 (antibody, V domains shown)
VH: EVKLVESGGGLVKPGGSLKLSCAASGFTFSSYGMSWVRQTPEKRLEWVATISGAFSYTYYPDSVKGRFTISRDNAKNNLYLQMSSLRSEDTAFYYCARHDNSLYYAMDYWGQGTSVTVSS
VL: NVQITQSPSYLAASPGETITINCRTSKSITKYLAWYQEQPGKTNKLLIYSGSTLQSGIPSRFSGSGSGTDFTLTISSLEPEDFAMYYCQQHNEYPWTFGGGTKLEIK
B2: Antibody 15A6 (antibody, V domains shown)
VH: EVKLVESGGDLVKPGGSLKLSCAASGFTFSTYGMSWVRQTPEKRLEWVATISGSNSYTYYPDSVKGRFTISRDNAKNNLYLQMSSLRSEDTALYYCTRHENGYYFYAMDYWGQGTSVTVSS
VL: B1 VL with N1D, A12T, T25S, Q39K, N92S, K103R
B3: Antibody 7C12 (antibody, V domains shown)
VH: EVQLQQSGPDLVKPGASVKISCKASGYIFTDFNMHWVKQSHGKSLEWIGYIYPFNGGTGYNQKFENMATLTVDISSSTAYMEVRSLTSEDSAVYYCARRGGRGHFDYWGQGTTLTVSS
VL: DIQMTQSPASLSASVGETVTVTCRASGNIHNYLAWYQQKQGKSPQLLVYNAKTLADGVPSRFSGSGSGIQFSLKINSLQPEDFGSYYCQHFWNTPFTFGSGTKLEIK
B4: Antibody 13C5 (antibody, V domains shown)
VH: QVQLKQSGPGLVQPSQSLSITCTVSGFSLTTFGVHWVRQSPGKGLEWLGVIWRGGSTDYNAAFMSRLSITKDNSKSQVFFKMNSLQADDTAIYYCAKNPYQYGSSHYYAMDYWGQGTSVTVSS
VL: DIVMTQSPSSLSVSAGEKVTMSCKSSQSLLNSGNQKNYLAWYQQKPGQPPKLLIYGASTRESGVPDRFTGSGSGTVFTLTISSVQAEDLAVYYCQNDHILPFTFGSGTKLEIK
B5: Antibody 13C4 (antibody, V domains shown)
VH: QIHLVQSGPELKKPGETVKISCKASGYTFTNYGMNWVKQAPGKALKWMGWMNTYIGEPTYADDFKGRFAFSLETSASTAYLQINNLKNEDMATYFCARRGDYASYYFDYWGQGTTLTVSS
VL: DIVLTQSPATLSVTPGDSVSLSCRASQNINNNLHWYHQKSHESPRLLIKYASQSISGIPSRVSGSGSGTDFTLSIVTVETEDFGMFFCQQSNSWPHTFGGGTKLEIR
B6: Antibody 13D12 (antibody, V domains shown)
VH: EIQLQQSGPELVKPGASVKVSCKASGYAFTSHNIYWVKQSHGKSLEWIGYIDPYNGGSTYNQKFKDKATLTVDKSSSTAYMHLKSLTSEDSAVYYCARGDYRDFWGQGTTLTVSS
VL: DIQMTQTTSSLSASLGDRVTIRCSASQAINNYLNWYQQKPDGTVKLLIYYTSSLHSGVPSRFSGSGSGADYSLTISNLEPEDIATYYCQQYSHLPWTFGGGTTLEIK

Molecular target: LILRB1-His
Assay: ELISA on recombinant His-tagged protein, OD450

binding, binds:
B1
B2
B3
B4
B5
B6

Molecular target: LILRB3-His
Assay: ELISA on recombinant His-tagged protein, OD450

binding, binds:
B1
B2
B3
B5
